From article PMC9433418
These are yes or no findings as the source states them, for the method shown. In cells and extracts the contact can be indirect. Some results given as binding are weak or reduced against the parent protein; the word gives no strength.

B1: Smad4, Q13485 1-552 (protein)
chain: MDNMSITNTPTSNDACLSIVHSLMCHRQGGESETFAKRAIESLVKKLKEKKDELDSLITAITTNGAHPSKCVTIQRTLDGRLQVAGRKGFPHVIYARLWRWPDLHKNELKHVKYCQYAFDLKCDSVCVNPYHYERVVSPGIDLSGLTLQSNAPSSMMVKDEYVHDFEGQPSLSTEGHSIQTIQHPPSNRASTETYSTPALLAPSESNATSTANFPNIPVASTSQPASILGGSHSEGLLQIASGPQPGQQQNGFTGQPATYHHNSTTTWTGSRTAPYTPNLPHHQNGHLQHHPPMPPHPGHYWPVHNELAFQPPISNHPAPEYWCSIAYFEMDVQVGETFKVPSSCPIVTVDGYVDPSGGDRFCLGQLSNVHRTEAIERARLHIGKGVQLECKGEGDVWVRCLSDHAVFVQSYYLDREAGRAPGDAVHKIYPSAYIKVFDLRQCHRQMQQQAATAQAAAAAQAAAVAGNIPGPGSVGGIAPAISLSAAAGIGVDDLRRLCILRMSFVKGWGPDYPRQSIKETPCWIEIHLHRALQLLDEVLHTMPIADPQPLD
B2: Smad3, P84022 1-425 (protein)
chain: MSSILPFTPPIVKRLLGWKKGEQNGQEEKWCEKAVKSLVKKLKKTGQLDELEKAITTQNVNTKCITIPRSLDGRLQVSHRKGLPHVIYCRLWRWPDLHSHHELRAMELCEFAFNMKKDEVCVNPYHYQRVETPVLPPVLVPRHTEIPAEFPPLDDYSHSIPENTNFPAGIEPQSNIPETPPPGYLSEDGETSDHQMNHSMDAGSPNLSPNPMSPAHNNLDLQPVTYCEPAFWCSISYYELNQRVGETFHASQPSMTVDGFTDPSNSERFCLGLLSNVNRNAAVELTRRHIGRGVRLYYIGGEVFAECLSDSAIFVQSPNCNQRYGWHPATVCKIPPGCNLKIFNNQEFAALLAQSVNQGFEAVYQLTRMCTIRMSFVKGWGAEYRRQTVTSTPCWIELHLNGPLQWLDKVLTQMGSPSIRCSSVS

Experiments:
[1] = molecular target: Smad3 (human (endogenous in hVA-MSC)), P84022; test: co-IP; lysates of hVA-MSC after 10 days of adipogenic induction with/out IFNγ (10 ng/ml) and/or Galunisertib (20 µM), collected under non-denaturing condition; ~300 µg protein per IP; monoclonal antibodies against STAT5, Smad3 or Smad4, 4 °C overnight; Protein A/G magnetic beads; washed in TBST + 0.1% TritonX100; western blot; details: remark: other sources report otherwise
[2] = molecular target: T1, Smad4 (human (endogenous in hVA-MSC)), Q13485; test: as above; details: remark: other sources report otherwise
T1 chain: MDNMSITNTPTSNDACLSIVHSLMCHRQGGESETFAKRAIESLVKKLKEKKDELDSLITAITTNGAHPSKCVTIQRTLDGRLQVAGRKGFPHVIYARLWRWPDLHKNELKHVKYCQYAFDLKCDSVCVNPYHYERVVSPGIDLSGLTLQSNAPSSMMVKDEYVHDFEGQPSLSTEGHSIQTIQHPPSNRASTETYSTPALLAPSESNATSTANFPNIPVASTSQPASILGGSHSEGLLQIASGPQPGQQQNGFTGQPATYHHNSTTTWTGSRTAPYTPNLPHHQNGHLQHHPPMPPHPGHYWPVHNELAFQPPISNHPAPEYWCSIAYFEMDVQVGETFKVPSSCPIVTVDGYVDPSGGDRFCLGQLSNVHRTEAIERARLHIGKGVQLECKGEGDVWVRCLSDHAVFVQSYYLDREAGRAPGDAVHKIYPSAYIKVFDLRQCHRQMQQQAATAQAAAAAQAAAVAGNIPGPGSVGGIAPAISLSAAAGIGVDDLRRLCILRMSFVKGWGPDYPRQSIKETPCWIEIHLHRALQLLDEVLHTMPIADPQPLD

Binder	binding [1]	binding [2]
B1	binds	–
B2	–	binds
